For this test, the system named is BDF1 mice, P815 leukemia ip, survival T/C. As to the kind of experiment: NCI In Vivo Anticancer Drug Screen. Data for tumor model P815 Mast Cell Leukemia (Ascitic) (intraperitoneal) in B6D2F1 (BDF1) mice. The settings on record: T/C endpoint: survival time, mean or median, schedule: Q01DX010 (ip), vehicle: saline, higher T/C = longer survival. As to the method:
The antitumor activity of compounds was measured in mice bearing transplantable tumors. Survival or tumor size were measured and the results are expressed as the measurement made in the treated group (T) divided by the measurement made in the vehicle treated control group (C). The tumor model used in this assay is P815 Mast Cell Leukemia (Ascitic) (intraperitoneal) in B6D2F1 (BDF1) mice

1 compound from PubChem BioAssay AID318 (DTP/NCI, 2004) can be followed below.

The structures appear in SMILES notation. The list is a part of this screen's results and no random one: it covers a few groups of compounds. Other doses and runs of a compound may be missing. T/C is the treated group as % of the vehicle group. Where survival is the endpoint, this PubChem deposit counts one and a half times the control or more as active, and values a quarter to a half above the control carry no call in these data; other NCI protocols may use other cut-offs. Some T/C values are marked as having no survivor count here; that says nothing about deaths at the dose. Schedules are NCI's codes, taken here to give the interval after Q, in days (D) or hours (H), and the number of doses after X. Additions like (4×) stand for listed records that agree. Some doses were run more than once; their values stand side by side, smallest first.

As for `CN(CCCl)CCCl`, the T/C was 154 % of control [survivor count not shown] (2×) (dose: 0.13 mg/kg/injection); 145 [survivor count not shown] and 163 % of control [survivor count not shown] (dose: 0.25 mg/kg/injection); 168 [survivor count not shown] and 181 % of control [survivor count not shown] (dose: 0.5 mg/kg/injection); 86 [survivor count not shown] and 95 % of control [survivor count not shown] (dose: 1.0 mg/kg/injection).
